PubChem BioAssay AID652243 – Drosophila RNAi Screening Center | 2013
Purpose: 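Knock-downs that decrease or increase androgen receptor reporter signal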 (primary screen). Cell system: Drosophila S2R+ cells. Reagent: long dsRNA against Drosophila genes. Timing: 72 h (48 h, then 24 h hormone). Conditions: synthetic androgen R1881 at 10 nM for 24 h. Read-out: 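Firefly light from an androgen-responsive reporter and Renilla control light per well, raw and unnormalised, for each of two replicates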. Reading the numbers: firefly reporter light: higher = more light from androgen-responsive reporter; Renilla control light: higher = more constitutive control signal (cell number, transfection). Hit rule: 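Hit when the log firefly-to-Renilla ratio dropped or increased by a fixed fold versus the mean of GFP or LacZ controls across duplicate plates; lowering cut given as 1.5 and as 3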. Meaning of the calls: active = hit: reporter lowered or raised; inactive = no hit.
The screen tested about 24,000 reagents; below is a random part of those that have a named target and a result. In the full data, 246 (1%) got an active call. 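Plates not normalised; calls are printed but the firefly/Renilla ratio behind them is not deposited; fold cut for lowering reported inconsistently.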 Raw values are not corrected between plates. Not given: the amount of reagent.

{"gene knocked down": "Rbf", "dsRNA": "DRSC18704", "firefly reporter light, replicate 1": 35997, "firefly reporter light, replicate 2": 47549, "Renilla control light, replicate 1": 1.79e5, "Renilla control light, replicate 2": 3.50e5, "Outcome": "inactive"}
{"gene knocked down": "Rbf", "dsRNA": "DRSC25213", "firefly reporter light, replicate 1": 6.06e5, "firefly reporter light, replicate 2": 4.12e5, "Renilla control light, replicate 1": 4.08e5, "Renilla control light, replicate 2": 4.42e5, "Outcome": "inactive"}
{"gene knocked down": "CG14270", "dsRNA": "DRSC17913", "firefly reporter light, replicate 1": 2.59e5, "firefly reporter light, replicate 2": 2.70e5, "Renilla control light, replicate 1": 3.03e6, "Renilla control light, replicate 2": 3.67e6, "Outcome": "inactive"}
{"gene knocked down": "RpL34b", "dsRNA": "DRSC16475", "firefly reporter light, replicate 1": 1.26e5, "firefly reporter light, replicate 2": 1.14e5, "Renilla control light, replicate 1": 3.02e6, "Renilla control light, replicate 2": 2.54e6, "Outcome": "inactive"}
{"gene knocked down": "mRpL10", "dsRNA": "DRSC00312", "firefly reporter light, replicate 1": 5.77e5, "firefly reporter light, replicate 2": 6.23e5, "Renilla control light, replicate 1": 3.34e6, "Renilla control light, replicate 2": 1.48e6, "Outcome": "inactive"}
{"gene knocked down": "ana1", "dsRNA": "DRSC16079", "firefly reporter light, replicate 1": 1.44e5, "firefly reporter light, replicate 2": 97707, "Renilla control light, replicate 1": 1.10e6, "Renilla control light, replicate 2": 1.24e6, "Outcome": "inactive"}
{"gene knocked down": "ana1", "dsRNA": "DRSC21825", "firefly reporter light, replicate 1": 4.16e5, "firefly reporter light, replicate 2": 3.66e5, "Renilla control light, replicate 1": 2.89e6, "Renilla control light, replicate 2": 4.52e6, "Outcome": "inactive"}
{"gene knocked down": "ana1", "dsRNA": "DRSC30086", "firefly reporter light, replicate 1": 1.06e6, "firefly reporter light, replicate 2": 1.09e6, "Renilla control light, replicate 1": 1.07e6, "Renilla control light, replicate 2": 1.20e6, "Outcome": "inactive"}
{"gene knocked down": "CG14417", "dsRNA": "DRSC18638", "firefly reporter light, replicate 1": 5.84e5, "firefly reporter light, replicate 2": 8.11e5, "Renilla control light, replicate 1": 4.97e6, "Renilla control light, replicate 2": 4.33e6, "Outcome": "inactive"}
{"gene knocked down": "CG12496", "dsRNA": "DRSC18602", "firefly reporter light, replicate 1": 1.22e5, "firefly reporter light, replicate 2": 1.22e5, "Renilla control light, replicate 1": 1.83e6, "Renilla control light, replicate 2": 1.47e6, "Outcome": "inactive"}
{"gene knocked down": "CG12496", "dsRNA": "DRSC28576", "firefly reporter light, replicate 1": 3.84e5, "firefly reporter light, replicate 2": 6.50e5, "Renilla control light, replicate 1": 1.31e6, "Renilla control light, replicate 2": 1.91e6, "Outcome": "inactive"}

Reformatted: results already given
{"gene knocked down":"Rbf","dsRNA":"DRSC18704","firefly reporter light, replicate 1":35997,"firefly reporter light, replicate 2":47549,"Renilla control light, replicate 1":1.79e5,"Renilla control light, replicate 2":3.50e5,"Outcome":"inactive"}
{"gene knocked down":"Rbf","dsRNA":"DRSC25213","firefly reporter light, replicate 1":6.06e5,"firefly reporter light, replicate 2":4.12e5,"Renilla control light, replicate 1":4.08e5,"Renilla control light, replicate 2":4.42e5,"Outcome":"inactive"}

The listing continues:
{"gene knocked down": "Sema2b", "dsRNA": "DRSC05609", "firefly reporter light, replicate 1": 1.31e5, "firefly reporter light, replicate 2": 2.52e5, "Renilla control light, replicate 1": 1.82e5, "Renilla control light, replicate 2": 3.05e5, "Outcome": "inactive"}
{"gene knocked down": "Sema2b", "dsRNA": "DRSC06867", "firefly reporter light, replicate 1": 1.23e5, "firefly reporter light, replicate 2": 1.78e5, "Renilla control light, replicate 1": 2.84e6, "Renilla control light, replicate 2": 2.84e6, "Outcome": "inactive"}
{"gene knocked down": "Sema2b", "dsRNA": "DRSC24672", "firefly reporter light, replicate 1": 8.56e5, "firefly reporter light, replicate 2": 6.74e5, "Renilla control light, replicate 1": 7.56e5, "Renilla control light, replicate 2": 9.51e5, "Outcome": "inactive"}
{"gene knocked down": "Pgd", "dsRNA": "DRSC18697", "firefly reporter light, replicate 1": 30631, "firefly reporter light, replicate 2": 43898, "Renilla control light, replicate 1": 5.01e5, "Renilla control light, replicate 2": 3.31e5, "Outcome": "inactive"}
{"gene knocked down": "Pgd", "dsRNA": "DRSC39148", "firefly reporter light, replicate 1": 7.41e5, "firefly reporter light, replicate 2": 6.77e5, "Renilla control light, replicate 1": 1.35e6, "Renilla control light, replicate 2": 1.15e6, "Outcome": "inactive"}
{"gene knocked down": "qua", "dsRNA": "DRSC03598", "firefly reporter light, replicate 1": 1.54e5, "firefly reporter light, replicate 2": 2.05e5, "Renilla control light, replicate 1": 1.86e6, "Renilla control light, replicate 2": 2.24e6, "Outcome": "inactive"}
{"gene knocked down": "Or56a", "dsRNA": "DRSC07495", "firefly reporter light, replicate 1": 1.39e5, "firefly reporter light, replicate 2": 1.57e5, "Renilla control light, replicate 1": 1.13e6, "Renilla control light, replicate 2": 1.34e6, "Outcome": "inactive"}
{"gene knocked down": "CG30184", "dsRNA": "DRSC22277", "firefly reporter light, replicate 1": 6.92e5, "firefly reporter light, replicate 2": 6.00e5, "Renilla control light, replicate 1": 2.54e6, "Renilla control light, replicate 2": 2.25e6, "Outcome": "inactive"}
{"gene knocked down": "CG30184", "dsRNA": "DRSC29631", "firefly reporter light, replicate 1": 5.05e5, "firefly reporter light, replicate 2": 6.66e5, "Renilla control light, replicate 1": 9.97e5, "Renilla control light, replicate 2": 9.97e5, "Outcome": "inactive"}
{"gene knocked down": "lncRNA:CR32661", "dsRNA": "DRSC28066", "firefly reporter light, replicate 1": 4.40e5, "firefly reporter light, replicate 2": 7.22e5, "Renilla control light, replicate 1": 7.66e5, "Renilla control light, replicate 2": 1.08e6, "Outcome": "inactive"}
